PubChem BioAssay AID1224828 | NIAID – 2016
In all, the deposit lists about 17,000 reagents; below is an unselected part. 762 of all reagents (4.5%) were called active. 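Active calls include both raised and lowered p65 entry, mostly lowered; wells with fewer than 50 cells lack a z-score.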 Raw values are not corrected between plates. Unmarked entries are inactive. A reagent listed more than once was tested more than once; the source does not tell the runs apart.

- Purpose: 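Regulators linking TLR4 signalling to p65 nuclear translocation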 (primary screen)
- Cell system: mouse RAW264.7 G9 macrophage reporter cells (GFP-p65, Tnf promoter-mCherry)
- Reagents: siRNA pool against mouse genes, 100 nM
- Duration: 2 days siRNA transfection, then 40 min LPS before fixation
- Challenge: LPS (Salmonella minnesota R595) at 10 ng/ml
- Measured: 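Microscopy ratio of nuclear to perinuclear-ring GFP-p65 signal, scaled to the plate median; gene score is the average of two replicate robust z-scores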
- Scale: p65 translocation robust z-score: higher = more nuclear NF-kappaB p65 after LPS than the plate median; nuclear/cytoplasmic p65 ratio: higher = more nuclear NF-kappaB p65
- Active means: 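Called active when z exceeds 3.3 or falls under -1.56 (median of Tlr4 controls), giving activity score of at least 50; no calls for control wells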
- Meaning of the calls: active = hit (p65 shift raised or lowered); inactive = no clear change

Sox30 (SRY (sex determining region Y)-box 30) → p65 translocation robust z-score = -0.23; nuclear/cytoplasmic p65 ratio, rep 1 = 1.4; nuclear/cytoplasmic p65 ratio, rep 2 = 1.2; low cell count flag = enough cells to score
Kat14 (lysine acetyltransferase 14) → p65 translocation robust z-score = -0.53; nuclear/cytoplasmic p65 ratio, rep 1 = 1.47; nuclear/cytoplasmic p65 ratio, rep 2 = 1.73; low cell count flag = enough cells to score
Pik3r3 (phosphoinositide-3-kinase regulatory subunit 3) → p65 translocation robust z-score = -1.21; nuclear/cytoplasmic p65 ratio, rep 1 = 1.47; nuclear/cytoplasmic p65 ratio, rep 2 = 1.25; low cell count flag = enough cells to score
Rbm14 (RNA binding motif protein 14) → p65 translocation robust z-score = -0.04; nuclear/cytoplasmic p65 ratio, rep 1 = 1.39; nuclear/cytoplasmic p65 ratio, rep 2 = 1.21; low cell count flag = enough cells to score
Irebf1 (retired record) → p65 translocation robust z-score = -1.35; nuclear/cytoplasmic p65 ratio, rep 1 = 1.37; nuclear/cytoplasmic p65 ratio, rep 2 = 1.24; low cell count flag = enough cells to score
Pou1f1 (POU domain, class 1, transcription factor 1) → p65 translocation robust z-score = -0.35; nuclear/cytoplasmic p65 ratio, rep 1 = 1.5; nuclear/cytoplasmic p65 ratio, rep 2 = 1.32; low cell count flag = enough cells to score
Strip1 (striatin interacting protein 1) → nuclear/cytoplasmic p65 ratio, rep 1 = 1.37; nuclear/cytoplasmic p65 ratio, rep 2 = 1.27; low cell count flag = fewer than 50 cells per well; well left out of scoring
Scaf11 (SR-related CTD-associated factor 11) → p65 translocation robust z-score = -0.22; nuclear/cytoplasmic p65 ratio, rep 1 = 1.54; nuclear/cytoplasmic p65 ratio, rep 2 = 1.62; low cell count flag = enough cells to score
Irf2bp1 (interferon regulatory factor 2 binding protein 1) → p65 translocation robust z-score = -1.82 (active); nuclear/cytoplasmic p65 ratio, rep 1 = 1.29; nuclear/cytoplasmic p65 ratio, rep 2 = 1.19; low cell count flag = enough cells to score
Map4k5 (mitogen-activated protein kinase kinase kinase kinase 5) → nuclear/cytoplasmic p65 ratio, rep 1 = 1.47; nuclear/cytoplasmic p65 ratio, rep 2 = 1.32; low cell count flag = fewer than 50 cells per well; well left out of scoring
Map4k5 (mitogen-activated protein kinase kinase kinase kinase 5) → p65 translocation robust z-score = -0.38; nuclear/cytoplasmic p65 ratio, rep 1 = 2.11; nuclear/cytoplasmic p65 ratio, rep 2 = 1.33; low cell count flag = enough cells to score

Records listed so far marked active (1):
Irf2bp1 (interferon regulatory factor 2 binding protein 1) → p65 translocation robust z-score = -1.82 (active); nuclear/cytoplasmic p65 ratio, rep 1 = 1.29; nuclear/cytoplasmic p65 ratio, rep 2 = 1.19; low cell count flag = enough cells to score

The list goes on.
Ftl2-ps (ferritin light polypeptide 2, pseudogene) → p65 translocation robust z-score = 0.91; nuclear/cytoplasmic p65 ratio, rep 1 = 1.77; nuclear/cytoplasmic p65 ratio, rep 2 = 1.55; low cell count flag = enough cells to score
Snhg11 (small nucleolar RNA host gene 11) → p65 translocation robust z-score = -0.58; nuclear/cytoplasmic p65 ratio, rep 1 = 1.29; nuclear/cytoplasmic p65 ratio, rep 2 = 1.46; low cell count flag = enough cells to score
Comtd1 (catechol-O-methyltransferase domain containing 1) → p65 translocation robust z-score = -0.79; nuclear/cytoplasmic p65 ratio, rep 1 = 1.44; nuclear/cytoplasmic p65 ratio, rep 2 = 1.67; low cell count flag = enough cells to score
Hhipl2 (hedgehog interacting protein-like 2) → nuclear/cytoplasmic p65 ratio, rep 1 = 1.17; nuclear/cytoplasmic p65 ratio, rep 2 = 1.16; low cell count flag = fewer than 50 cells per well; well left out of scoring
Zfp52 (zinc finger protein 52) → p65 translocation robust z-score = 0.73; nuclear/cytoplasmic p65 ratio, rep 1 = 1.5; nuclear/cytoplasmic p65 ratio, rep 2 = 1.34; low cell count flag = enough cells to score
Diras1 (DIRAS family, GTP-binding RAS-like 1) → p65 translocation robust z-score = -0.1; nuclear/cytoplasmic p65 ratio, rep 1 = 1.45; nuclear/cytoplasmic p65 ratio, rep 2 = 1.37; low cell count flag = enough cells to score
E330037G11Rik (RIKEN cDNA E330037G11 gene) → p65 translocation robust z-score = 1.36; nuclear/cytoplasmic p65 ratio, rep 1 = 1.65; nuclear/cytoplasmic p65 ratio, rep 2 = 1.36; low cell count flag = enough cells to score
Pus7l (pseudouridylate synthase 7-like) → nuclear/cytoplasmic p65 ratio, rep 1 = 1.14; nuclear/cytoplasmic p65 ratio, rep 2 = 1.34; low cell count flag = fewer than 50 cells per well; well left out of scoring
Bag5 (BCL2-associated athanogene 5) → p65 translocation robust z-score = -0.51; nuclear/cytoplasmic p65 ratio, rep 1 = 1.53; nuclear/cytoplasmic p65 ratio, rep 2 = 1.54; low cell count flag = enough cells to score
Stap1 (signal transducing adaptor family member 1) → p65 translocation robust z-score = 0.15; nuclear/cytoplasmic p65 ratio, rep 1 = 1.69; nuclear/cytoplasmic p65 ratio, rep 2 = 1.6; low cell count flag = enough cells to score
2310033P09Rik (RIKEN cDNA 2310033P09 gene) → nuclear/cytoplasmic p65 ratio, rep 1 = 1.18; nuclear/cytoplasmic p65 ratio, rep 2 = 1.16; low cell count flag = fewer than 50 cells per well; well left out of scoring
Ift70a1 (intraflagellar transport 70A1) → nuclear/cytoplasmic p65 ratio, rep 1 = 1.1; nuclear/cytoplasmic p65 ratio, rep 2 = 1.36; low cell count flag = fewer than 50 cells per well; well left out of scoring
Etl4 (enhancer trap locus 4) → p65 translocation robust z-score = -0.1; nuclear/cytoplasmic p65 ratio, rep 1 = 1.66; nuclear/cytoplasmic p65 ratio, rep 2 = 1.53; low cell count flag = enough cells to score
Dmrta1 → nuclear/cytoplasmic p65 ratio, rep 1 = 1.47; nuclear/cytoplasmic p65 ratio, rep 2 = 1.51; low cell count flag = fewer than 50 cells per well; well left out of scoring
Xirp1 (xin actin-binding repeat containing 1) → p65 translocation robust z-score = -0.12; nuclear/cytoplasmic p65 ratio, rep 1 = 1.58; nuclear/cytoplasmic p65 ratio, rep 2 = 1.76; low cell count flag = enough cells to score
Leap2 (liver-expressed antimicrobial peptide 2) → p65 translocation robust z-score = -0.12; nuclear/cytoplasmic p65 ratio, rep 1 = 1.52; nuclear/cytoplasmic p65 ratio, rep 2 = 1.42; low cell count flag = enough cells to score
